In PubChem BioAssay AID1794845 (National Center for Advancing Translational Sciences (NCATS), 2023):
Out of some 6,900 compounds screened, fewer than 10 were called active. Calls follow the shape of the dose curve; as a rule, active = well fitted curve in the direction sought with a large enough effect; inconclusive = small, poorly fitted or top-dose-only effect, or another doubt; inactive = no such curve, though single readings can be large or run the other way. The list shows a part of the results.

The chains behind the UniProt entries cited, without tags or fusion partners. Where a name states a change or a piece, a line headed by the entry shows the natural chain unless it says otherwise.
UniProt C7C422: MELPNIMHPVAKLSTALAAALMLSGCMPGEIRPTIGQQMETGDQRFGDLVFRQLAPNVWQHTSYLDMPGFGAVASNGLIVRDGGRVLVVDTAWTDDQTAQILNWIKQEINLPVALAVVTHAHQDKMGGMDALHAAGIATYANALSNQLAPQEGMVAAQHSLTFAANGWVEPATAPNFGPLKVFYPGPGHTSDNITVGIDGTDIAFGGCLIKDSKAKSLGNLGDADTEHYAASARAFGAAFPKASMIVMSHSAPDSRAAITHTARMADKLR

Biological target: Metallo-beta-lactamase type 2 (Klebsiella pneumoniae) (UniProt C7C422)
Assay: qHTS to identify inhibitors of the New Delhi Metallo-beta-lactamase (NDM): primary screen against the NCATS Gemini Collection; also: % of control where 0% means no effect
Conditions: NDM-1 enzyme, meropenem hydrolysis, absorbance 300 nm; at 38.4 µM (top of the series) unless noted
How it was run: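 Meropenem hydrolysis (50 uM final) by 2 nM NDM-1 read as 300 nm absorbance after 30 min, following >30 min compound–enzyme preincubation in HEPES pH 7.0 with 1 uM ZnSO4 and 0.01% Tween20.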

Activity % (negative = inhibition), inactive:
Cc1ccc(OCC(=O)NCc2c(C)ncc3c2CCNC3)cc1C 22.7%
O=C(Nc1ccc(=O)n2c1[C@@H]1C[C@@H](CN(C(=O)COc3ccccc3)C1)C2)c1ccccc1 -0.063%
Cc1cnc(CCNC(=O)c2ccc(C#N)cc2)n1C1CC1 13.1%
COc1ccccc1OC1(C(=O)O)CCN(c2ncnc(C)c2C)CC1 -5.13%
CN(Cc1ccc2nsnc2c1)Cc1cc2n(n1)CCCNC2 -6.61%
O=C1CCC2(CNC(=O)c3cc(F)ccc3F)CCC=C2N1 (configuration not stated) -4.1%
O=C(c1ccc(Cl)cc1)N1CC2(CCN(CC3CC3)CC2)Cc2ccccc21 16.5%
COc1cc([C@@H]2c3cc4c(cc3[C@H](O)[C@@H](CO)[C@@H]2C(=O)NC(C)C)OCO4)cc(OC)c1OC 6.22%
CCc1cn(C[C@@H](C(=O)O)N(CC)CC)c(=O)[nH]c1=O 3.66% [at 77.1 µM]
Cc1cc(C)cc(N2CCN(c3cc(C4CC(O)C4)ncn3)CC2=O)c1 (configuration not stated) 7.03%
CCn1cc(S(=O)(=O)N2CCOc3ccc(CN4CCCCCC4)cc3C2)cn1 5.62%
Cc1ccc2oc([C@H]3CCN(C(=O)C4CC4)C3)nc2c1 3.81% [at 77.1 µM]
COC[C@@H]1CCCN1Cc1cc2cc3c(cc2[nH]c1=O)OCO3 18.3%
COc1cccc(CCC(=O)N2CCCC(CN3CCCC3)CC2)c1 (configuration not stated) 14.9%
COc1ccc(F)c(CN2CCC3(CCC(=O)N(CCO)C3)CC2)c1 -2.65%
OCC1(Cc2ccc(F)cc2F)CCCN(c2cnc3ccccc3n2)C1 (configuration not stated) -0.375%
Cc1nnc(CNC(=O)C2CCC(=O)N(CCN3CCOCC3)C2)o1 (configuration not stated) 2.8%
COc1ccc(-c2nc3c(c(=O)[nH]2)CCN(S(=O)(=O)C2CC2)C3)cc1 10.7%
O=C(Nc1ccc(N2CCC(NC3Cc4ccccc4C3)CC2)cc1)C1CCCC1 8.01%
OC[C@@H]1CN(Cc2cccnc2)C[C@H]1c1ccccn1 10%
Cc1ccc(CNC(=O)N(C)CC2CCOCC2)cc1 -0.782%
Cc1nc2ccc(C(=O)NC(C(=O)O)c3c(C)n[nH]c3C)cc2[nH]1 (configuration not stated) 10.8%
O=C(N[C@@H]1CCOC[C@H]1OCCO)c1ccc2c(c1)ncn2CCO 2%
O=C(N[C@@H]1CN(Cc2ccccc2)C[C@H]1CO)c1cn[nH]c1 17.1%
Cc1noc(C)c1CC(=O)N1CCCn2cc(-c3ccccc3F)nc21 3.8%
Cc1ccc(NC(=O)N2CCN(c3nnnn3-c3ccccc3)CC2)cc1 0.0539%
CC[C@H]1CN(C(=O)C(C)(C)C)CC[C@H]1CC(=O)NCc1cccnc1 2.92% [at 57.5 µM]
COc1ccccc1-c1ccc(C(=O)N2CCC(C(=O)Nc3ccccc3Cl)CC2)cc1 -5.41%
O=C(Cc1ccc(F)cc1)NCc1nnc2ccc(-c3ccc(Cl)cc3)nn12 33.5%
Cc1nnc2n1CCC(N(C)C(=O)NC1CCCCC1)CC2 (configuration not stated) 8.88%
O=C1CO[C@H]2CN(Cc3ccc4c(c3)OCO4)C[C@H]2N1Cc1ccc(F)cc1 2.35% [at 57.5 µM]
Cn1nc2n(c1=O)CCN(C(=O)c1ccc(F)cc1F)CC2 -1.76%
O=C1NC2(CCN([S+](=O)([O-])c3cccc(C(F)(F)F)c3)C2)COc2ccccc21 (configuration not stated) 3.97%
COCc1nc(NCCc2nc(-c3ccccn3)no2)c2cnn(C)c2n1 5.88%
O=C(NCc1ccc(Cl)nc1)c1cc2cccnn2n1 27.8% [at 57.5 µM]
COCC1CN(C2CCC2)CC12CCN(C(=O)c1ccsc1)CC2 (configuration not stated) -3.61%
COc1ccc(-c2[nH]nc3ncc(C(=O)N4CCC(c5ccccc5)CC4)nc23)c(C)c1 5.82% [at 57.5 µM]
COc1cccc(-c2ccc(C(=O)N3CCC(NC(=O)c4ccc(C(F)(F)F)cc4)CC3)cc2)c1 2.93%
COc1ccc(NC(=O)N2C[C@@H]3C[C@H](C2)c2c(NC(=O)C4CCCCC4)ccc(=O)n2C3)cc1 3.88%
CCOc1ccccc1CN1CCC[C@H]1C(=O)N1CCCCCCNC(=O)CC1 9.08%
O=C(CC1CC1)N1C[C@H]2OC(=O)N(CCc3cccc(Cl)c3)[C@H]2C1 4.36%
O=C(c1n[nH]c2ccccc12)N1CCC(N2C(=O)C(OCC3CC3)C23CCCCC3)CC1 (configuration not stated) 23.8%
CNC(=O)[C@@H]1CN(C(=O)NCc2ccc(C)cc2)C[C@H]1c1nc(C)no1 -10.1%
Cc1cncc(C(=O)NC2CCN(c3ccc(=O)n(C)n3)CC2)c1 5.24%
O=C(Nc1ccc2ncnc(N3CCCCC3)c2c1)C1CCCCC1 2.61%
COc1ccccc1CNC(=O)CN1CCCC(CO)(CC2CC2)C1 (configuration not stated) -1.67%
NCc1ccc(Oc2ccc(F)c(Cl)c2)cc1 -3.16% [at 57.5 µM]
Cc1noc(C)c1C(=O)N1CCN(S(=O)(=O)c2ccc(Cl)nc2)C(=O)C1 4.38%
Cc1[nH]c(-c2ccccc2)nc1C(=O)N1CCCC[C@H](N(C)C)C1 1.85%
CC(C)CN(CC1CN(C(=O)c2ccccc2)CCO1)C(=O)c1cccc2ccccc12 (configuration not stated) -5.47%
Cc1noc2c(NCCCn3ccnc3)cc(-c3ccccn3)nc12 47% [at 57.5 µM]
COCCN1CC(C(=O)NCc2sc3ccccc3c2Cl)CCC1=O (configuration not stated) 9.65%
CN1CCN(S(=O)(=O)c2cc(C(=O)O)cc(-c3ccncc3)c2)CC1 1.21%
Cc1nn(-c2ccccc2)c2c1C(C(C)C)N(C1CN([S+](C)(=O)[O-])C1)C2=O (configuration not stated) -10.6%
Cn1ccnc1C(O)c1cc2n(n1)CCN(S(=O)(=O)C1CC1)C2 (configuration not stated) 19%
COc1ccc(C2(C(=O)N3CCCCCC3c3nc(C4CC4)no3)CC2)cc1 (configuration not stated) 1.06%
CCN(Cc1ccccc1)C(=O)CCC[C@H]1NC[C@@H]2CC1CN(Cc1ccccc1)C2 -1.84%
O=C(CCc1cc2n(n1)CCCN(C(=O)CCc1ccsc1)C2)NC1CC1 20.8%
C[C@@H]1CN(c2nc(-c3ccccc3)no2)CC[C@@]1(O)C1CCC1 76%
O=C(CCc1ccsc1)N1CCC2(CCCN(Cc3cccnc3)C2=O)C1 (configuration not stated) -2.26%
O=c1cc(N2CCOCC2)oc2c(NCc3ccc(F)cc3)nccc12 16.3% [at 57.5 µM]
O=C(NC1CC1)[C@@H]1C[C@H](Oc2ccccc2)CN1C(=O)C1CCC1 0.0788%
Cc1cnc(CCNC(=O)C2CC=CC2)n1C1CC1 9.89%
c1ncc(CN2CCn3c(nnc3C3CCCNC3)C2)s1 (configuration not stated) 47.9%
COC1CCC12CCN(Cc1ccc(C)s1)CC2 (configuration not stated) -1.23%
CN(C)[C@@H]1CO[C@H](CNC(=O)N2CCOCC2)[C@H]1O 6.03% [at 77.1 µM]
O=C1c2c(-c3nc(-c4ccsc4)no3)nnn2CCN1Cc1cccc(Cl)c1 -1.11%
COc1ccc(CNC(=O)c2ccc3nnc(C4CCOCC4)n3c2)cc1 -0.0669%
c1ccc(OCc2noc(-c3ccc(NC4CCSC4)nc3)n2)cc1 (configuration not stated) 31.4%
COc1ccc(NC(=O)C(C)(C)Oc2nn(CC3CC3)c3ccc(CN4CCCC4)cc23)cc1 2.89%
CCN(CC)C(=O)[C@@H]1CCC[C@@H](NC(=O)c2ccc(OC)cc2)CN(C)C(=O)C1 0.501% [at 57.5 µM]
Cc1nc2ncccn2c1C(=O)N1CCC2(CCCN(C)C2=O)C1 (configuration not stated) 9.6%
C=CCCC(CN1CCOCC1)Oc1ccc(-c2ccccc2)nn1 (configuration not stated) -3.56%
CCc1ccc(CNC(=O)Cn2c(C)cc3nc4n(c(=O)c32)CCCC4)cc1 -1.33%
CC(=O)NC1CCN(Cc2cn(-c3ccc(C)cc3)nc2-c2cccc(C)c2)C1 (configuration not stated) 4.18%
CCN(CC)C(=O)N1CCC(c2noc(-c3ccccc3)n2)C1 (configuration not stated) 5.36%
Cc1noc([C@@H]2C[C@H](NC(=O)C3CCCCC3)CN2C)n1 2.83% [at 77.1 µM]
COc1ccc(N2CCN(c3nc(C(=O)NCc4cccc(C)c4)cs3)CC2)cc1 2.65%
Cc1ncc2n1C(=O)N(C1CCN(Cc3ccncc3)CC1)C2 -1.28% [at 57.5 µM]
CCOC(=O)N1CCC(N[C@@H]2CC[C@@H]2NC(=O)CCn2cncn2)CC1 8.66%
NC(=O)COC[C@@H]1CN(Cc2ccco2)C[C@H]1c1ccncc1 20.4%
COC[C@H]1NC(=O)CC[C@H]1C(=O)N1CCCc2ccccc21 27.6%
CCCNC(=O)NCCn1c(C)cnc1-c1ccncc1 43.4%
C#CCN(C)CC[C@@H]1CC[C@H](O)[C@@H](C(=O)NC2CCCCC2)O1 8.09% [at 57.5 µM]
NCC(=O)N1CCC2(CC1)CN([S+](=O)([O-])c1ccccc1)CCO2 1.41%
CN1CCN(Cc2cccc(OCC(O)CN3CCOCC3)c2)CC1(C)C (configuration not stated) -1.26%
CC(C)CCN1CCC2(COc3ccccc3C(=O)N2)C1 (configuration not stated) 70% [at 57.5 µM]

20 structures from above, sorted by SMILES length, low to high:
Activity % (negative = inhibition), inactive:
CCCNC(=O)NCCn1c(C)cnc1-c1ccncc1 43.4%
c1ncc(CN2CCn3c(nnc3C3CCCNC3)C2)s1 (configuration not stated) 47.9%
CN(Cc1ccc2nsnc2c1)Cc1cc2n(n1)CCCNC2 -6.61%
O=C1CCC2(CNC(=O)c3cc(F)ccc3F)CCC=C2N1 (configuration not stated) -4.1%
Cc1ncc2n1C(=O)N(C1CCN(Cc3ccncc3)CC1)C2 -1.28% [at 57.5 µM]
Cc1nc2ncccn2c1C(=O)N1CCC2(CCCN(C)C2=O)C1 (configuration not stated) 9.6%
COc1ccccc1OC1(C(=O)O)CCN(c2ncnc(C)c2C)CC1 -5.13%
COC[C@@H]1CCCN1Cc1cc2cc3c(cc2[nH]c1=O)OCO3 18.3%
NC(=O)COC[C@@H]1CN(Cc2ccco2)C[C@H]1c1ccncc1 20.4%
O=C(N[C@@H]1CCOC[C@H]1OCCO)c1ccc2c(c1)ncn2CCO 2%
CN1CCN(S(=O)(=O)c2cc(C(=O)O)cc(-c3ccncc3)c2)CC1 1.21%
COc1ccc(N2CCN(c3nc(C(=O)NCc4cccc(C)c4)cs3)CC2)cc1 2.65%
Cc1noc(C)c1C(=O)N1CCN(S(=O)(=O)c2ccc(Cl)nc2)C(=O)C1 4.38%
COc1ccccc1-c1ccc(C(=O)N2CCC(C(=O)Nc3ccccc3Cl)CC2)cc1 -5.41%
CNC(=O)[C@@H]1CN(C(=O)NCc2ccc(C)cc2)C[C@H]1c1nc(C)no1 -10.1%
CCN(Cc1ccccc1)C(=O)CCC[C@H]1NC[C@@H]2CC1CN(Cc1ccccc1)C2 -1.84%
COc1ccc(NC(=O)C(C)(C)Oc2nn(CC3CC3)c3ccc(CN4CCCC4)cc23)cc1 2.89%
Cc1nn(-c2ccccc2)c2c1C(C(C)C)N(C1CN([S+](C)(=O)[O-])C1)C2=O (configuration not stated) -10.6%
O=C1NC2(CCN([S+](=O)([O-])c3cccc(C(F)(F)F)c3)C2)COc2ccccc21 (configuration not stated) 3.97%
CCN(CC)C(=O)[C@@H]1CCC[C@@H](NC(=O)c2ccc(OC)cc2)CN(C)C(=O)C1 0.501% [at 57.5 µM]
